Measurements from PubChem BioAssay AID540276 (National Center for Advancing Translational Sciences (NCATS), 2011).
About 5,400 (1.8%) of roughly 300,000 compounds were called active. Inconclusive means that the source gave no clear call. Such entries were picked first, then a sample of the others. Calls come from the whole dose curve; tested in HEK293 cells. Potencies beside an inconclusive call are fits to weak or partial responses and may not hold up.

Assay: qHTS for inhibitors of binding or entry into cells for Marburg Virus
Details: Marburg virus pseudotyped entry inhibition, cell reporter; activity change, negative = inhibition: at 37.8 µM (top of the series) unless noted
% is set by controls: 0 for no effect and ±100 for the full control effect; potency is the fitted concentration of half-maximal effect.

Structure (SMILES)	Potency	activity change, negative = inhibition
Nc1nc(NCc2ccccc2)n(-c2ccccc2)n1	inconclusive: 2.51 µM [inhibitor, partial curve, poor fit]	–
COc1ccc(-c2nn(-c3ccccc3)cc2C(=O)O)cc1OC	–	inactive: 17.3%
CCOP(=O)(c1ccccc1)C1(O)CCCCC1 (stereo not drawn)	inconclusive: 1.26 µM [activator, full curve, poor fit]	–
CCn1cc(/C=N\NC(=O)c2ccc(Cl)cc2)cn1	inconclusive: 0.0891 µM [inhibitor, full curve, poor fit]	–
Brc1ccc(C2Nc3cccc4cccc(c34)N2)cc1	–	inactive: 0.42% [at 46.1 µM]
Oc1ccc2ccccc2c1/C=N/n1cnnc1	inconclusive: 9.2 µM [inhibitor, partial curve]	–
CCn1c(SCC(=O)OCc2ccccc2)nnc1-c1ccco1	–	inactive: 0.715%
Cc1ccc(/C=C/C(=O)Nc2cccc3cccnc23)o1	–	inactive: -4.37%
CCOC(=O)c1cc(-c2ccc(C)cc2)n(CC(=O)Nc2ccc(OC)cc2OC)c1C	inconclusive: 17.8 µM [inhibitor, partial curve, poor fit]	–
O=[N+]([O-])c1cccc(OCCN2CCC(Cc3ccccc3)CC2)c1	inconclusive: 35.5 µM [inhibitor, single point]	–
COc1ccccc1N1CCN(/N=C/C(Cl)=C/c2ccccc2)CC1	inconclusive: 6.31 µM [activator, partial curve, poor fit]	–
CSCCC(CO)NC(=O)OCc1ccccc1 (stereo not drawn)	inconclusive: 14.1 µM [activator, partial curve, poor fit]	–
COc1ccc(C2c3[nH]c4ccccc4c3CCN2C(=O)c2ccc(=O)n(C)n2)c(F)c1 (stereo not drawn)	inconclusive: 35.5 µM [inhibitor, partial curve, poor fit]	–
COc1ccc(C(C)=O)cc1CSc1nnc(Nc2ccc(C)cc2C)s1	inconclusive: 11.2 µM [inhibitor, single point]	–
Cc1ccc(Cn2c(CN3CCN(c4cccc(Cl)c4)CC3)nc3c2c(=O)n(C)c(=O)n3C)cc1	–	inactive: -3.18% [at 46.1 µM]
COc1ccccc1N(CC(=O)NCCC1=CCCCC1)S(=O)(=O)c1ccccc1	inconclusive: 15.8 µM [inhibitor, partial curve, poor fit]	–
CCNc1nc(-c2cc(C)n(Cc3ccco3)c2C)cs1	inconclusive: 7.08 µM [inhibitor, partial curve, poor fit]	–
Cc1ccc(S(=O)(=O)NC2c3cccc4cccc(c34)C2Sc2n[nH]c(N)n2)cc1 (stereo not drawn)	inconclusive: 14.1 µM [inhibitor, single point]	–
O=[N+]([O-])c1ccc(O)c(-c2ccnc3cc(-c4ccccc4)nn23)c1	–	inactive: -15.3% [at 46.1 µM]
COc1ccc2c(c1)CCc1cnc(N)nc1-2	inconclusive: 15.8 µM [inhibitor, single point]	–
Nc1nc(Cl)cc(-c2ccccc2)n1	inconclusive: 8.91 µM [inhibitor, partial curve, poor fit]	–
CCc1sc(NC(=O)COC)nc1-c1ccccc1	inconclusive: 17.8 µM [inhibitor, single point]	–

Structure (SMILES)	Potency	activity change, negative = inhibition
O=C(c1ccc2ccccc2c1)N1CCOCC1	inconclusive: 12.6 µM [activator, single point]	–
COc1ccc(CCNC(=O)C(=O)NCCOc2ccccc2Cl)cc1OC	inconclusive: 5.62 µM [inhibitor, single point]	–
Cn1ccnc1-c1ccc(-c2nccn2C)cc1	inconclusive: 22.4 µM [activator, partial curve, poor fit]	–
NC(=O)c1ccc(NC(=O)COC(=O)C2COc3ccccc3O2)cc1 (stereo not drawn)	inconclusive: 3.55 µM [inhibitor, single point]	–
CC1CCN(C(=O)c2ccc(N3CC4CC(C3)c3cccc(=O)n3C4)c([N+](=O)[O-])c2)CC1 (stereo not drawn)	inconclusive: 3.16 µM [activator, full curve]	–
CN(C)CCOCCOc1ccc(Cl)c2ccccc12	inconclusive: 14.1 µM [inhibitor, single point]	–
Cc1ccc(CS(=O)(=O)c2ncc(Cl)c(C(=O)Nc3ccc(OC(F)F)cc3)n2)cc1	inconclusive: 11.2 µM [inhibitor, partial curve, poor fit]	–
COc1cc(NC(=O)CSc2nc(=O)n(CCCN3CCOCC3)c3c2CCC3)cc(OC)c1	–	inactive: 13.9%
Cc1ccc(NC(=O)CN2C(=O)N/C(=C/c3cc(C)n(-c4ccc(C(=O)O)cc4)c3C)C2=O)cc1	–	inconclusive: 29% [activator] [at 46.1 µM]
Cn1c(=O)n(C)c2cc(NC(=O)COc3ccc(Cl)cc3)ccc21	inconclusive: 7.94 µM [inhibitor, partial curve, poor fit]	–
CCc1ccccc1-n1nnnc1-c1cnccc1C(F)(F)F	inconclusive: 1.41 µM [inhibitor, partial curve, poor fit]	–
COC(=O)N/N=C/c1cn(Cc2ccccc2F)c2ccccc12	inconclusive: 11.2 µM [inhibitor, single point]	–
N#CCCn1cc(/C=N/NC(N)=S)c(-c2ccc(Br)cc2)n1	inconclusive: 22.4 µM [inhibitor, single point]	–
Cc1ccccc1NC(=S)NCc1ccco1	–	inactive: 12.6%
Cn1c(=NC(=O)CS(=O)(=O)c2ccccc2)sc2ccccc21	–	inactive: -14%
O=C(NCc1cccnc1)Nc1cccc(C(F)(F)F)c1	–	inactive: -2.77% [at 46.1 µM]
O=Cc1c(NCCc2cccc(F)c2)c2ccccc2[nH]c1=O	inconclusive: 4.47 µM [inhibitor, single point]	–
N=C1CCC(=N)c2c1c(O)c1ccccc1c2O	inconclusive: 5.62 µM [activator, single point]	–
O=C(/C(=C/c1cccc(Cl)c1)c1nc2ccccc2[nH]1)c1ccccc1	inconclusive: 35.5 µM [inhibitor, single point]	–
COc1ccc(C(C)=O)cc1CSc1nnc(Nc2c(C)cccc2C)s1	inconclusive: 0.251 µM [inhibitor, full curve, poor fit]	–
Cc1ccc(C(C(=O)NCc2ccccc2)N(Cc2cccs2)C(=O)c2ccc3c(c2)OCCO3)cc1 (stereo not drawn)	active: 6.51 µM	–

A second format for part of the listing above.
O=C(NCc1cccnc1)Nc1cccc(C(F)(F)F)c1
  activity change, negative = inhibition: inactive: -2.77% [at 46.1 µM]
O=Cc1c(NCCc2cccc(F)c2)c2ccccc2[nH]c1=O
  Potency: inconclusive: 4.47 µM [inhibitor, single point]
